# Laboratory results as given in patent US20210308173A1, “PHARMACEUTICAL COMPOSITION COMPRISING CYCLODEXTRIN COMPLEXES OF ANETHOLE TRITHIONE OR DERIVATIVES THEREOF” (priority 2018, published 2021).
# The name of at least one read-out is uncertain.
# Tests used:
# [1] = Cyclodextrin-AOL solubility diagrams; type: physicochemical; settings: vs initial SBE-β-CD solution
# Text: A cyclodextrin-AOL solubility diagram would reveal the profile of the solubility curve of the AOL depending on the concentration of the cyclodextrin. The principle of this method is to add an excess of AOL to cyclodextrin solutions of increasing concentration, then to measure the amount of solubilized AOL. This method confirms the solubilization and evaluates more precisely the cyclodextrin solubilizing power, to define a stoichiometry of the complexes (molar and mass ratios) over the entire range of concentrations studied and to estimate the solubility limit and the stability of the mixtures.
# The solubilization was carried out with HP-β-CD and SBE-β-CD in a range of concentration ranging from 2.5% to 40% (m/m) at 20° C., 25° C. and 30° C. To check the stability of the solution, a storage test at 4° C. for 48 hours was carried out with the solutions previously prepared at 20° C.
# Aqueous solutions of cyclodextrin at in weight (m/m) concentrations of 2.5%, 5%, 10%, 20%, 30% and 40% were prepared in pure water. An excess of AOL was suspended in 2 mL each of these solutions. Each sample is shaken at 20° C., 25° C. or 30° C. for 4 hours (vortex at 1400 rpm). Each sample is centrifuged (12,500 g) and filtered through a 0.45 μm membrane.
# The solubility of AOL in each test solution was quantified by HPLC as detailed in Example 2.
# [2] = Co-solvent addition: AOL solubility; type: physicochemical; settings: 10% or 20% (w/w) each
# Experimental: SBE-β-CD compatible excipients, namely polyethylene glycol and polysorbate (Tween), were evaluated for their AOL aqueous solubilizing power. Screening was carried out in same conditions as that of solubilization screening by cyclodextrins (see Example 3).
# Briefly, 20% (w/w) solutions of each excipient were prepared. An excess of AOL was added and the solutions were analyzed by HPLC after 4 hours of stirring.
# The effect of the combination of SBE-β-CD and Tween 80 was measured in a comparative assay by solubilizing AOL in: (A) Tween 80, 10% (w/w); (B) SBE-β-CD 10% (w/w) (C) Tween 80 and SBE-β-CD 10% (w/w) each; (D) Tween 80 20% (w/w) (E) SBE-β-CD 20% (w/w); and (F) Tween 80 and SBE-β-CD 20% (w/w) each.
# Further assays, resumed in Tables 7 and 8, confirmed that Tween 80/SBE-β-CD is a promising excipient mixture for the solubilization of AOL.
smiles,measurement,setting,value
"COc1ccc(-c2cc(=S)ss2)cc1 [AOL, 5-(4-methoxyphenyl)-3H-1,2-dithiole-3-thione]",osmolarity of the SBE-β-CD solution after AOL solubilization,[1],did not modify the osmolarity
same,solubilization effect of the combination Tween 80/SBE-β-CD,[2],cumulative effect
